Data as given in PubChem BioAssay AID2685 (National Center for Advancing Translational Sciences (NCATS), 2010).
The other results are listed elsewhere or left out. Shown are side measurements of this screen, not its main read-out; they come without a call. The list favours compounds with an active or inconclusive main result. The note in brackets gives the kind of curve behind each potency; many fits are weak.

Assay: qHTS Assay for Lipid Storage Modulators in Drosophila S3 Cells;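 for cell number change: cells counted by Cell Tracker Red CMTPX staining in the red channel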
Conditions: BODIPY lipid droplet fluorescence, 18-24 h; for cell number change: measured here: cell count max response, cells fed with added oleic acid
How it was run: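 Drosophila S3 cells loaded with oleic acid (400 uM, as added) and compounds at several concentrations; lipid droplets imaged by 488-nm laser-scanning cytometry, 500–530 nm intensity and object ratio to cell channel. Percent activity normalized to 20 uM Triacsin C.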

[1] = measured here: cell number channel AC50, cells fed with added oleic acid
[2] = measured here: lipid fluorescence (Fed channel) AC50, cells fed with added oleic acid

## O=C(/C=C/c1ccc(Cl)cc1Cl)N(Cc1ccc(Cl)cc1)C1CCS(=O)(=O)C1 (configuration not stated)
[1]
  AC50: 2.91 µM [falling, single point]

## CCOC(=O)C1=C(C)N(CCCCCC(=O)O)C(=O)NC1c1ccc(Br)cc1 (configuration not stated)
  cell number change: 16.5%
[2]
  AC50: 3.26 µM [falling, full curve, poor fit]

## COCCN(C(=O)COC(=O)/C=C/c1ccco1)c1c(N)n(Cc2ccccc2)c(=O)[nH]c1=O
  cell number change: -14.4%
[2]
  AC50: 29.1 µM [falling, single point]

## O=C(OCC(=O)c1c[nH]c2ccccc12)c1cccc([N+](=O)[O-])c1
  cell number change: 1.43%
[2]
  AC50: 0.00411 µM [rising, full curve, poor fit]

## CCNC(=O)CC1C(=O)N(c2ccc(C)cc2)C(=O)N1Cc1ccccn1 (configuration not stated)
  cell number change: -5.81%
[2]
  AC50: 0.326 µM [falling, full curve]

## COc1ccc(C(C)=O)cc1COc1ccc(-n2cnnn2)cc1
  cell number change: 51.1%
[1]
  AC50: 2.31 µM [rising, partial curve]
[2]
  AC50: 0.58 µM [rising, single point]

## O=[N+]([O-])c1ccccc1/C=N/N1CCN(Cc2ccccc2)CC1
[2]
  AC50: 0.92 µM [falling, full curve]

## CCCCCCCCCCCCOC1OC(CO)C(O)C(O)C1NC(C)=O (configuration not stated)
  cell number change: -0.663%

## COc1ccc(N2CCN(C(=O)COC(=O)Cc3c(F)cccc3Cl)CC2)cc1
  cell number change: 50.5%
[1]
  AC50: 7.31 µM [rising, partial curve]

## Fc1ccc(C(c2ccc(F)cc2)N2CCN(C/C=C/c3ccccc3)CC2)cc1
  cell number change: -61.8%
[1]
  AC50: 18.4 µM [falling, partial curve]
[2]
  AC50: 29.1 µM [falling, single point]

## COC(=O)CN1C(=O)[C@H]2[C@@H](/C=C/c3ccccc3)N3C(=O)CN(CCO)C(=O)[C@@]3(Cc3ccccc3)[C@H]2C1=O
  cell number change: 24.9%
[1]
  AC50: 0.82 µM [rising, full curve, poor fit]
[2]
  AC50: 29.1 µM [rising, single point]

## CCOC(=O)c1cc2cc(F)ccc2nc1C
  cell number change: 90.2%

## O=C(NNC(=O)c1csc(N2CCOCC2)n1)c1cccnc1
  cell number change: 20.6%
[2]
  AC50: 29.1 µM [falling, single point]

## Nc1c(C(=O)CSc2nc3ccccc3o2)c(=O)[nH]c(=O)n1C1CC1
  cell number change: -2.49%
[2]
  AC50: 29.1 µM [falling, single point]

## O=C(OCc1cccc(C(F)(F)F)c1)c1ccc[nH]c1=O
  cell number change: -13.5%
[2]
  AC50: 6.51 µM [falling, partial curve]

## CN1CCN(C(=O)CSc2ccc(C(F)(F)F)cc2[N+](=O)[O-])CC1
  cell number change: 3.09%
[2]
  AC50: 29.1 µM [rising, single point]

## COc1ccc(/C=N/NC(N)=S)cc1
  cell number change: 24.4%

## O=C(O)c1ccc(NS(=O)(=O)c2ccc(N3C(=O)CCC3=O)cc2)cc1
  cell number change: 22.6%
[1]
  AC50: 0.103 µM [rising, full curve, poor fit]
[2]
  AC50: 29.1 µM [rising, single point]

## COc1ccc(NS(=O)(=O)c2ccc3[nH]c(=O)[nH]c3c2)cc1OC
  cell number change: -2.92%
[2]
  AC50: 0.164 µM [rising, full curve, poor fit]

## Cc1noc(C)c1COC(=O)c1cc(F)c(F)cc1Cl
  cell number change: -2.7%
[2]
  AC50: 0.13 µM [falling, full curve, poor fit]

## CN1CCN(C(=O)/C(=C\c2ccccc2)c2ccccc2)CC1
[2]
  AC50: 29.1 µM [falling, single point]

## O=C(Nc1ccc(Cl)c(Cl)c1)c1cccc(S(=O)(=O)NCc2cccnc2)c1
  cell number change: 3.97%

## O=C(Cc1c(F)cccc1Cl)NCC(=O)OCc1ccccc1
  cell number change: -9.24%

## CCCCC(O)(CCCC)C(=O)NN(C(=O)OC)c1ccc(C)cc1
  cell number change: -18.7%
[1]
  AC50: 0.116 µM [falling, full curve, poor fit]
[2]
  AC50: 0.206 µM [falling, full curve, poor fit]

## Cc1ccccc1Nc1nnc(SCC(=O)NCc2ccco2)s1
  cell number change: 20.5%
[2]
  AC50: 18.4 µM [rising, single point]

## Cc1csc(NC(=O)c2ccc(Cn3nc(C)c(Br)c3C)o2)n1
[2]
  AC50: 5.8 µM [falling, partial curve]

## COc1cc(-c2noc(C)c2C#CC2(O)CCCCC2)cc(OC)c1OC
  cell number change: -12%
[2]
  AC50: 8.2 µM [falling, partial curve, poor fit]

## COc1cccc(NC(=O)CN(C)C(=O)c2ccc(N3CCCCC3)c([N+](=O)[O-])c2)c1
  cell number change: 3.63%
[2]
  AC50: 0.092 µM [falling, full curve, poor fit]

## Cn1nc(C(=O)NCCc2ccc3c(c2)OCCO3)c2ccccc2c1=O
  cell number change: 39.4%
[1]
  AC50: 11.6 µM [rising, single point]

## Cc1nn(Cc2ccc(F)cc2)c(Cl)c1/C=N/NC(=O)c1cccnc1
[1]
  AC50: 0.651 µM [falling, partial curve, poor fit]

## O=S(=O)(NCc1cccs1)c1ccccc1Cl
  cell number change: 37.7%
[1]
  AC50: 5.17 µM [falling, single point]
[2]
  AC50: 32.6 µM [rising, single point]

## Fc1ccc(C[n+]2csc3ccccc32)cc1
  cell number change: -14.3%

## CCN1CCN(C(=O)CN(c2ccc(C)cc2)S(C)(=O)=O)CC1
  cell number change: 1.26%

## CN(Cc1cccs1)C(=O)CCNS(=O)(=O)c1ccc(Br)cc1
  cell number change: -40.2%
[1]
  AC50: 14.6 µM [falling, partial curve]

## O=C(c1cnn2c(C(F)(F)F)cc(-c3ccccc3)nc12)N1CCCCC1c1cccnc1 (configuration not stated)
[1]
  AC50: 0.146 µM [falling, full curve, poor fit]

## COc1ccc(-c2nc(-c3ccc(NC(=O)c4ccncc4)cc3)no2)cc1OC
  cell number change: -14.8%
[2]
  AC50: 18.4 µM [falling, single point]

## CCN1C(=S)N[C@@H](CCc2ccccc2)[C@H](C(=O)OC)[C@H]1C
  cell number change: -9.9%

## CC(C)CC(=O)NC(=S)Nc1cccc(NC(=O)c2ccccc2)c1
[2]
  AC50: 2.06 µM [rising, partial curve, poor fit]

## CCCCC(=O)NCCNc1nc2c(c(=O)n(C)c(=O)n2C)n1Cc1ccc(F)cc1
  cell number change: -26%

## CSc1nc2ccsc2c(=O)n1-c1ccccc1
  cell number change: 6.41%

## CSCCC(N=C1NS(=O)(=O)c2ccccc21)C(=O)NCCc1ccccc1 (configuration not stated)
  cell number change: -15.9%
[2]
  AC50: 16.4 µM [falling, partial curve]

## N#Cc1cc2c(=O)n3ccccc3nc2n(CCN2CCOCC2)c1=O
  cell number change: -0.542%

## CCOC(=O)Cc1nnc(NC(=O)COc2ccc(OC)cc2)s1
  cell number change: 5.06%
[2]
  AC50: 0.103 µM [falling, full curve, poor fit]

## O=C(NCc1cccnc1)c1cc(-c2ccccc2)on1
  cell number change: -3.99%
[2]
  AC50: 0.00461 µM [falling, full curve, poor fit]

## Cc1ccc(Cl)cc1NC(=O)CON=C(N)c1ccccc1
[2]
  AC50: 32.6 µM [rising, single point]

## COc1ccc(C(=O)OC(C)C(=O)NC(C)CCc2ccccc2)c(OC)c1 (configuration not stated)
  cell number change: -12.4%
[2]
  AC50: 29.1 µM [falling, single point]

## Cc1ccc(OCCN2CCN(CC(O)Cn3c4ccccc4c4ccccc43)CC2)cc1 (configuration not stated)
  cell number change: -75.6%
[1]
  AC50: 16.4 µM [falling, partial curve]
[2]
  AC50: 18.4 µM [falling, partial curve]

## COc1ccc(NC(=O)CN2C(=O)CSC(C)C2=O)cc1 (configuration not stated)
  cell number change: -19.6%

## Cc1cc(C)cc(NC(=O)COC(=O)CN=C2NS(=O)(=O)c3ccccc32)c1
  cell number change: -5.2%
[2]
  AC50: 0.058 µM [rising, full curve, poor fit]

## CC(C)C(=O)Nc1cccc(NC(=S)NC(=O)c2ccc(Cl)cc2)c1
  cell number change: -39.9%
[1]
  AC50: 29.1 µM [falling, single point]
[2]
  AC50: 11.6 µM [falling, partial curve, poor fit]

## Cc1cccc(C(=O)NCC(=O)OCC(=O)N2CCc3ccccc32)c1
  cell number change: 16.3%
[1]
  AC50: 0.00517 µM [falling, full curve, poor fit]

## O=C(COC(=O)COc1ccc(Cl)cc1Br)NC1CCCCCC1
  cell number change: 13.7%
[2]
  AC50: 1.84 µM [falling, full curve, poor fit]

## COC(=O)CCCC(=O)N1CCC(CCC(=O)NC2CC2)CC1
  cell number change: 10.1%

## O=C(NCc1ccccc1C(F)(F)F)C1CCC(=O)N(CCCc2ccccc2)C1 (configuration not stated)
  cell number change: 3.2%

## CN(CC(=O)Nc1ccc(Cl)cc1)C(=O)C1=COCCO1
  cell number change: 20%
[2]
  AC50: 5.17 µM [falling, partial curve]

## CN1CCOCCOCCN(C)C(=O)N2CCOCCOCCN(CCOCC2)C1=O
  cell number change: 16.1%
[2]
  AC50: 0.00517 µM [falling, full curve, poor fit]

## CCc1nnc(NC(=O)CCC(=O)NCCc2ccc(OC)c(OC)c2)s1
  cell number change: 33.3%
[1]
  AC50: 16.4 µM [rising, single point]

## O=C(Nc1cc(S(=O)(=O)N2CCOCC2)ccc1Cl)C(=O)c1c(-c2ccccc2)cc2ccccn12
  cell number change: 21.9%
[2]
  AC50: 6.51 µM [rising, single point]

## Clc1ccc2c(NCc3cccs3)ncnc2c1
  cell number change: -11.7%
[2]
  AC50: 20.6 µM [falling, single point]

## O=c1cc(N2CCCCC2)c(-c2ccccc2)nn1Cc1ccccc1Cl
  cell number change: -8.91%

## Cc1ccc(-c2c3c(nc4sc(C(N)=O)c(N)c24)CCCC3)o1
  cell number change: 36%
[1]
  AC50: 5.17 µM [rising, partial curve]
[2]
  AC50: 5.17 µM [rising, partial curve]

## Clc1ccc(-n2ncc3c(NCC4CCCO4)ncnc32)cc1 (configuration not stated)
  cell number change: -14.7%
[2]
  AC50: 20.6 µM [falling, partial curve]

## CC1=C(C(=O)OC2CCCCC2)C(c2ccc(C)o2)C2=C(CCCC2=O)N1 (configuration not stated)
  cell number change: 1.45%
[2]
  AC50: 0.00411 µM [rising, full curve, poor fit]
